Results on one substance are retold here after paper PMC7217929.

The chains behind the UniProt entries cited, without tags or fusion partners.
UniProt Q8TD17: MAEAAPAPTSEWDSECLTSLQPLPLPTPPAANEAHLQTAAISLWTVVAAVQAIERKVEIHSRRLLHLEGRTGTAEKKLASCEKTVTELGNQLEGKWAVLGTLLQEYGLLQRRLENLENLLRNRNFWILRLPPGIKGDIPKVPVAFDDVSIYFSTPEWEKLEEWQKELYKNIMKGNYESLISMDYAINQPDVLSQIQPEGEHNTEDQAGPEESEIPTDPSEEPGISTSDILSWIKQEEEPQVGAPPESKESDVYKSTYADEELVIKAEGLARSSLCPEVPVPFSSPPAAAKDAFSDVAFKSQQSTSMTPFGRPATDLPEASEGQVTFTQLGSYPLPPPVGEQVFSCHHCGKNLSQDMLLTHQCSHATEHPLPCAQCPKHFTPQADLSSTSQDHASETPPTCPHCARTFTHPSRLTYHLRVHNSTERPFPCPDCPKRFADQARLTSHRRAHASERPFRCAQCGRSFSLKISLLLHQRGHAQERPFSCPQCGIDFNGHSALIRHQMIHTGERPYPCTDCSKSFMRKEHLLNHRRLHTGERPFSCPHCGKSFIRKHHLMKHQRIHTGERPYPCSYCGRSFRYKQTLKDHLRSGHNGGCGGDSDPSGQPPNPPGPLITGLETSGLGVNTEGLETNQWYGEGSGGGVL
UniProt P84022: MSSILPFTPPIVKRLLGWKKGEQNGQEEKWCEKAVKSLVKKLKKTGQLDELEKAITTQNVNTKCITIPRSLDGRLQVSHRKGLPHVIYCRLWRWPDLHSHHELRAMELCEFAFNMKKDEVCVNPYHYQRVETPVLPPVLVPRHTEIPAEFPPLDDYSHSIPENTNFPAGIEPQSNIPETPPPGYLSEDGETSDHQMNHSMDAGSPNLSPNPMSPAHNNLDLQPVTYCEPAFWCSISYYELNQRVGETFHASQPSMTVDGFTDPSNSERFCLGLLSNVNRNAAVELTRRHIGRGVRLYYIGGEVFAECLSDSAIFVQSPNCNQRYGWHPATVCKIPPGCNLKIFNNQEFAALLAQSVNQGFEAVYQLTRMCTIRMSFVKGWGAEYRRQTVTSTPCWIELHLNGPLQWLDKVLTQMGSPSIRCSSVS

Results are given in words; binding and its absence hold for the method and conditions named. In cells and extracts the contact can be indirect. Some results given as binding are weak or reduced against the parent protein; the word gives no strength.

The experiment deals with Avi-Tag-ZNF398 (human) (UniProt Q8TD17). The experiment is described as follows: co-IP; nuclear lysates of H9 expressing Avi-Tag-ZNF398, treated with 25 ng/ml Activin A for 1 h; nuclei treated with micrococcal nuclease at 30 °C for 10 min; IP buffer 50 mM Tris-HCl pH 8.0, 100 mM NaCl; antibodies against SMAD3, Avi-Tag-ZNF398 or IgG overnight at 4 °C, Protein G magnetic beads; blots for endogenous SMAD3 and Avi-Tag-ZNF398.

Consider SMAD3 (from UniProt P84022 1-425), for which the binding entry was “binds”.
